Measured values from PMC10834983.
Results are given in words; binding and its absence hold for the method and conditions named. In cells and extracts the contact can be indirect. Some results given as binding are weak or reduced against the parent protein; the word gives no strength.

Biological target: Cyclin-dependent kinase 5 (UniProt Q00535)
Assay: co-IP; tissues or cells lysed in RIPA buffer with protease and phosphatase inhibitors; incubated with an antibody against Cdk5 and protein A/G Sepharose; Drosha detected by Western blot; source of the lysate not stated

B1: Drosha (enzyme, UniProt Q9NRR4 1-1374)
chain: MMQGNTCHRMSFHPGRGCPRGRGGHGARPSAPSFRPQNLRLLHPQQPPVQYQYEPPSAPSTTFSNSPAPNFLPPRPDFVPFPPPMPPSAQGPLPPCPIRPPFPNHQMRHPFPVPPCFPPMPPPMPCPNNPPVPGAPPGQGTFPFMMPPPSMPHPPPPPVMPQQVNYQYPPGYSHHNFPPPSFNSFQNNPSSFLPSANNSSSPHFRHLPPYPLPKAPSERRSPERLKHYDDHRHRDHSHGRGERHRSLDRRERGRSPDRRRQDSRYRSDYDRGRTPSRHRSYERSRERERERHRHRDNRRSPSLERSYKKEYKRSGRSYGLSVVPEPAGCTPELPGEIIKNTDSWAPPLEIVNHRSPSREKKRARWEEEKDRWSDNQSSGKDKNYTSIKEKEPEETMPDKNEEEEEELLKPVWIRCTHSENYYSSDPMDQVGDSTVVGTSRLRDLYDKFEEELGSRQEKAKAARPPWEPPKTKLDEDLESSSESECESDEDSTCSSSSDSEVFDVIAEIKRKKAHPDRLHDELWYNDPGQMNDGPLCKCSAKARRTGIRHSIYPGEEAIKPCRPMTNNAGRLFHYRITVSPPTNFLTDRPTVIEYDDHEYIFEGFSMFAHAPLTNIPLCKVIRFNIDYTIHFIEEMMPENFCVKGLELFSLFLFRDILELYDWNLKGPLFEDSPPCCPRFHFMPRFVRFLPDGGKEVLSMHQILLYLLRCSKALVPEEEIANMLQWEELEWQKYAEECKGMIVTNPGTKPSSVRIDQLDREQFNPDVITFPIIVHFGIRPAQLSYAGDPQYQKLWKSYVKLRHLLANSPKVKQTDKQKLAQREEALQKIRQKNTMRREVTVELSSQGFWKTGIRSDVCQHAMMLPVLTHHIRYHQCLMHLDKLIGYTFQDRCLLQLAMTHPSHHLNFGMNPDHARNSLSNCGIRQPKYGDRKVHHMHMRKKGINTLINIMSRLGQDDPTPSRINHNERLEFLGDAVVEFLTSVHLYYLFPSLEEGGLATYRTAIVQNQHLAMLAKKLELDRFMLYAHGPDLCRESDLRHAMANCFEALIGAVYLEGSLEEAKQLFGRLLFNDPDLREVWLNYPLHPLQLQEPNTDRQLIETSPVLQKLTEFEEAIGVIFTHVRLLARAFTLRTVGFNHLTLGHNQRMEFLGDSIMQLVATEYLFIHFPDHHEGHLTLLRSSLVNNRTQAKVAEELGMQEYAITNDKTKRPVALRTKTLADLLESFIAALYIDKDLEYVHTFMNVCFFPRLKEFILNQDWNDPKSQLQQCCLTLRTEGKEPDIPLYKTLQTVGPSHARTYTVAVYFKGERIGCGKGPSIQQAEMGAAMDALEKYNFPQMAHQKRFIERKYRQELKEMRWEREHQEREPDETEDIKK
binding: binds
